Data published in paper PMC5841321.
Results are given in words; binding and its absence hold for the method and conditions named. In cells and extracts the contact can be indirect. These calls come from enrichment with a bait or labelling near it, and not all partners need be listed.

Molecular target: T1, E3 ubiquitin-protein ligase Midline-1 (UniProt O15344)
T1 sequence: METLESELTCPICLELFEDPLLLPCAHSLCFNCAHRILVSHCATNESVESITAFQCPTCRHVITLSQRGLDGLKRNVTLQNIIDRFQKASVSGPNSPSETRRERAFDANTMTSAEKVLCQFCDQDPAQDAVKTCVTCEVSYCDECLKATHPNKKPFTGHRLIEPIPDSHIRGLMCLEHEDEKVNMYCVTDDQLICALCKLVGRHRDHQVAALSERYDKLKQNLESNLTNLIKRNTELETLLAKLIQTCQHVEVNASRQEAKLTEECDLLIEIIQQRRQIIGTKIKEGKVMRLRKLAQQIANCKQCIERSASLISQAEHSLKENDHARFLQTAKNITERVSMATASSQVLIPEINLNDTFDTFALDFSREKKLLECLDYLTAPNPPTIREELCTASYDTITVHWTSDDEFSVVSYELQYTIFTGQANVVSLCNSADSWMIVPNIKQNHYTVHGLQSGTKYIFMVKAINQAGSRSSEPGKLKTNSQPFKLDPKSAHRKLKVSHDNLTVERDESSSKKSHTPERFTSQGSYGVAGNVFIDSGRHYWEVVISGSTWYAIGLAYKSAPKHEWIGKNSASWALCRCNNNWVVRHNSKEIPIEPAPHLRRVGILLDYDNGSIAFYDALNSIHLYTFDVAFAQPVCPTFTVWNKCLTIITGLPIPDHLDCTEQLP
Assay: affinity purification with mass spectrometry; MID1-FLAG expressed in HEK293T, lysate in TKM buffer (20 mM Tris pH 7.4, 100 mM KCl, 5 mM MgCl2, 0.5% NP40, 1 mM DTT), anti-FLAG M1 agarose overnight at 4 °C, 6 washes; untransfected cells as control; Q-Exactive, MaxQuant, 1% FDR

B1: RRP12-like protein (protein, UniProt Q5JTH9 1-1297)
chain: MGRSGKLPSGVSAKLKRWKKGHSSDSNPAICRHRQAARSRFFSRPSGRSDLTVDAVKLHNELQSGSLRLGKSEAPETPMEEEAELVLTEKSSGTFLSGLSDCTNVTFSKVQRFWESNSAAHKEICAVLAAVTEVIRSQGGKETETEYFAALMTTMEAVESPESLAAVAYLLNLVLKRVPSPVLIKKFSDTSKAFMDIMSAQASSGSTSVLRWVLSCLATLLRKQDLEAWGYPVTLQVYHGLLSFTVHPKPKIRKAAQHGVCSVLKGSEFMFEKAPAHHPAAISTAKFCIQEIEKSGGSKEATTTLHMLTLLKDLLPCFPEGLVKSCSETLLRVMTLSHVLVTACAMQAFHSLFHARPGLSTLSAELNAQIITALYDYVPSENDLQPLLAWLKVMEKAHINLVRLQWDLGLGHLPRFFGTAVTCLLSPHSQVLTAATQSLKEILKECVAPHMADIGSVTSSASGPAQSVAKMFRAVEEGLTYKFHAAWSSVLQLLCVFFEACGRQAHPVMRKCLQSLCDLRLSPHFPHTAALDQAVGAAVTSMGPEVVLQAVPLEIDGSEETLDFPRSWLLPVIRDHVQETRLGFFTTYFLPLANTLKSKAMDLAQAGSTVESKIYDTLQWQMWTLLPGFCTRPTDVAISFKGLARTLGMAISERPDLRVTVCQALRTLITKGCQAEADRAEVSRFAKNFLPILFNLYGQPVAAGDTPAPRRAVLETIRTYLTITDTQLVNSLLEKASEKVLDPASSDFTRLSVLDLVVALAPCADEAAISKLYSTIRPYLESKAHGVQKKAYRVLEEVCASPQGPGALFVQSHLEDLKKTLLDSLRSTSSPAKRPRLKCLLHIVRKLSAEHKEFITALIPEVILCTKEVSVGARKNAFALLVEMGHAFLRFGSNQEEALQCYLVLIYPGLVGAVTMVSCSILALTHLLFEFKGLMGTSTVEQLLENVCLLLASRTRDVVKSALGFIKVAVTVMDVAHLAKHVQLVMEAIGKLSDDMRRHFRMKLRNLFTKFIRKFGFELVKRLLPEEYHRVLVNIRKAEARAKRHRALSQAAVEEEEEEEEEEEPAQGKGDSIEEILADSEDEEDNEEEERSRGKEQRKLARQRSRAWLKEGGGDEPLNFLDPKVAQRVLATQPGPGRGRKKDHGFKVSADGRLIIREEADGNKMEEEEGAKGEDEEMADPMEDVIIRNKKHQKLKHQKEAEEEELEIPPQYQAGGSGIHRPVAKKAMPGAEYKAKKAKGDVKKKGRPDPYAYIPLNRSKLNRRKKMKLQGQFKGLVKAARRGSQVGHKNRRKDRRP
binding: binds

B2: U4/U6.U5 tri-snRNP-associated protein 1 (protein, UniProt O43290 1-800)
chain: MGSSKKHRGEKEAAGTTAAAGTGGATEQPPRHREHKKHKHRSGGSGGSGGERRKRSRERGGERGSGRRGAEAEARSSTHGRERSQAEPSERRVKREKRDDGYEAAASSKTSSGDASSLSIEETNKLRAKLGLKPLEVNAIKKEAGTKEEPVTADVINPMALRQREELREKLAAAKEKRLLNQKLGKIKTLGEDDPWLDDTAAWIERSRQLQKEKDLAEKRAKLLEEMDQEFGVSTLVEEEFGQRRQDLYSARDLQGLTVEHAIDSFREGETMILTLKDKGVLQEEEDVLVNVNLVDKERAEKNVELRKKKPDYLPYAEDESVDDLAQQKPRSILSKYDEELEGERPHSFRLEQGGTADGLRERELEEIRAKLRLQAQSLSTVGPRLASEYLTPEEMVTFKKTKRRVKKIRKKEKEVVVRADDLLPLGDQTQDGDFGSRLRGRGRRRVSEVEEEKEPVPQPLPSDDTRVENMDISDEEEGGAPPPGSPQVLEEDEAELELQKQLEKGRRLRQLQQLQQLRDSGEKVVEIVKKLESRQRGWEEDEDPERKGAIVFNATSEFCRTLGEIPTYGLAGNREEQEELMDFERDEERSANGGSESDGEENIGWSTVNLDEEKQQQDFSASSTTILDEEPIVNRGLAAALLLCQNKGLLETTVQKVARVKAPNKSLPSAVYCIEDKMAIDDKYSRREEYRGFTQDFKEKDGYKPDVKIEYVDETGRKLTPKEAFRQLSHRFHGKGSGKMKTERRMKKLDEEALLKKMSSSDTPLGTVALLQEKQKAQKTPYIVLSGSGKSMNANTITK
binding: binds
